Measurements from paper PMC11144275 (The Lancet. Infectious diseases, 2019).
Where a name gives a salt, the structure may show the parent alone.

Columns and labels:
EBOV-Makona = type: cell-based, Ebola virus
EBOV-Ituri = type: cell-based, Ebola virus

CCN(CC)CCOc1ccc(C(=C(Cl)c2ccccc2)c2ccccc2)cc1 [Clomifene citrate]
EBOV-Makona Selectivity index (EBOV-Makona): 42 | EBOV-Ituri Selectivity index (EBOV-Ituri): 70

CC/C(=C(\c1ccccc1)c1ccc(OCCN(C)C)cc1)c1ccccc1 [Tamoxifen]
EBOV-Makona Selectivity index (EBOV-Makona): 52 | EBOV-Ituri Selectivity index (EBOV-Ituri): 151
